Measured values as given in PubChem BioAssay AID743266 (National Center for Advancing Translational Sciences (NCATS), 2014).
About 310 (0.076%) of roughly 410,000 compounds were called active. The shares of active, inactive and inconclusive entries below differ from those in the screen. Calls follow the shape of the dose curve; as a rule, active = well fitted activation curve with a large enough effect; inconclusive = small, poorly fitted or top-dose-only effect, or another doubt; inactive = no such curve, though single readings can be large or run the other way. Potencies of inconclusive entries are doubtful fits and often do not repeat.

Chains of the proteins cited; added tags and fusions are not shown. Lines headed by an entry give the natural chain unless they say otherwise; changes in a name come on top.
UniProt Q03431: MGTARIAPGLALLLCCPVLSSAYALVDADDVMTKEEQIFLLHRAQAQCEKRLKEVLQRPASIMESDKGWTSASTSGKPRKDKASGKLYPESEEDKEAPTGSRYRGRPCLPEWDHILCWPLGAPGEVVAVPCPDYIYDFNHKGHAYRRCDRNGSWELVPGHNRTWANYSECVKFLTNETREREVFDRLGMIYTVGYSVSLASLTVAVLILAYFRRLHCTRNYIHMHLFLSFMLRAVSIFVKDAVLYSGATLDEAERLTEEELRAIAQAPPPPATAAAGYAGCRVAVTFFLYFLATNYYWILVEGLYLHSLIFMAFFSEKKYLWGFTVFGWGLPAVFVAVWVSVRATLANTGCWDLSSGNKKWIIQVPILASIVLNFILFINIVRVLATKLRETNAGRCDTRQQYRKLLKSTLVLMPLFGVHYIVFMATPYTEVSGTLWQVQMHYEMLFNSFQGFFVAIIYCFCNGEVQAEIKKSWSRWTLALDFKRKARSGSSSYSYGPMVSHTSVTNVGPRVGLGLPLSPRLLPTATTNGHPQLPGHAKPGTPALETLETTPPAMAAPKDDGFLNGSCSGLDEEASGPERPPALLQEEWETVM

What follows are compounds tested against Parathyroid hormone/parathyroid hormone-related peptide receptor (Homo sapiens) (UniProt Q03431) (assay: qHTS for PTHR1 Agonists: Primary Screen). Settings: HEK293 GP2 PTHR1 cells, GloSensor cAMP luminescence, 1 h; activation: at 115 µM (top of the series) unless noted; series mostly up to 115 µM.
Summary of the method: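 HEK-293-derived GP2 cells expressing PTHR1 and a GloSensor cAMP reporter, 3,000/well, plated overnight, given luciferin plus IBMX (each 0.5 mM as added) for 1 h at 37 °C, then compound for 1 h at 37 °C. Luminescence was read after 15 min at room temperature.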
Also: nearly all actives have a fitted effect of over 55% in size.
Potency is read from the fitted curve at half-maximal effect.

| SMILES | Potency | activation | outcome |
| --- | --- | --- | --- |
| CNC(=S)NNC(=O)c1cn(C)nc1C | inconclusive: 7.08 µM [activator, partial curve, poor fit] | – | – |
| O=C(c1ccc(Cl)cc1)c1ccc(OCC(=O)N2CCOCC2)cc1 | inconclusive: 39.8 µM [activator, single point] | – | – |
| COc1cc(CNc2ccc(C)c(C)c2)cc(OC)c1OC | inconclusive: 12.6 µM [activator, partial curve, poor fit] | – | – |
| CCN(CCCNC(=O)c1ccc(Sc2ccc(Cl)cc2)c(NC(C)=O)c1)c1cccc(C)c1 | – | inactive: -10.5% | – |
| Cc1cc(Br)ccc1NC(=O)c1sc2ncn(Cc3ccccc3Cl)c(=O)c2c1C | inconclusive: 112 µM [activator, single point] | – | – |
| CN(c1cccc(NC(=O)c2ccc(Cl)c(S(=O)(=O)N3CCOCC3)c2)c1)S(C)(=O)=O | – | inactive: -64.7% | – |
| CCCCNC(=O)C12CCC(C)(C(=O)C1Br)C2(C)C (configuration not stated) | inconclusive: 22.4 µM [activator, partial curve, poor fit] | – | – |
| CCOCCCNC(=O)C(C)NS(=O)(=O)c1ccc(C)cc1 (configuration not stated) | inconclusive: 50.1 µM [activator, single point] | – | – |
| O=C(N/N=C/c1cccc2ccccc12)c1cc2ccccc2o1 | inconclusive: 44.7 µM [activator, partial curve] | – | – |
| COCCNC(=O)c1ccc(-c2ccc(OC)cc2C)c2ccoc12 | inconclusive: 126 µM [activator, single point] | – | – |
| Cc1nc(SCC(=O)NCc2ccco2)[nH]c(=O)c1C | inconclusive: 44.7 µM [activator, single point] | – | – |
| CCOC(=O)c1c(C)[nH]c(N=Nc2ccc(OC)cc2)c1C | – | inconclusive: -53.5% [activator] | – |
| CC1CC(=O)c2c(cc3c(-c4c(O)cc(O)c5c(O)c6c(cc45)OC(C)CC6=O)c(O)cc(O)c3c2O)O1 (configuration not stated) | – | inactive: -52.6% | – |
| O=C(Cc1cccs1)N1CCN(c2nc(-c3ccc(Cl)cc3)cs2)CC1 | – | – | inactive [at 57.5 µM] |
| NS(=O)(=O)c1cc(Br)c2c(c1)S(=O)(=O)NCN2 | – | – | inactive |
| Cc1oc(-c2ccccc2F)nc1CS(=O)(=O)CC(=O)NCCCN1CC(C)CC(C)C1 (configuration not stated) | inconclusive: 25.1 µM [activator, partial curve, poor fit] | – | – |
| CC1CCCCC12NC(=O)N(CC(=O)N1CCN(c3ncccn3)CC1)C2=O (configuration not stated) | inconclusive: 50.1 µM [activator, partial curve, poor fit] | – | – |
| CN=C1N(C)C[C@@H]2[C@@H]3C(=O)N(C)C(=O)[C@@H]3[C@](C)(C(=O)OC)N12 | – | inconclusive: 25.5% [activator] | – |
| O=C(/C=C/c1ccco1)NC1CCCC1 | – | inconclusive: -51.5% [activator] | – |
| Cc1cccc(C)c1N1C(=O)CC(N2CCN(S(=O)(=O)c3ccccc3F)CC2)C1=O (configuration not stated) | – | – | inactive |
| CCC(C)NS(=O)(=O)c1ccc(S(=O)(=O)N(CC(=O)Nc2ccccc2)CC2CCCO2)cc1 (configuration not stated) | inconclusive: 2.51 µM [activator, partial curve, poor fit] | – | – |
| Cc1nc2sccn2c1-c1nc(-c2cc3ccccc3o2)cs1 | inconclusive: 5.01 µM [activator, full curve, poor fit] | – | – |
| CCOC(=O)c1c(/N=C/C2=C(O)CC(C)(C)CC2=O)sc(C(C)=O)c1C | inconclusive: 17.8 µM [activator, partial curve, poor fit] | – | – |

| SMILES | Potency | activation | outcome |
| --- | --- | --- | --- |
| COc1cc(NC(=O)Nc2cccc(Cl)c2)c(C(=O)O)cc1OC | inconclusive: 126 µM [activator, single point] | – | – |
| COCCNC(=O)c1ccc2c3n(nc2c1)-c1ccc(C)cc1CO3 | – | – | inactive |
| COCC(C)OC(=O)c1c(N)n(CC(C)C)c2nc3ccccc3nc12 (configuration not stated) | inconclusive: 39.8 µM [activator, partial curve, poor fit] | – | – |
| Cc1nnc(Sc2c(-c3ccccc3)c3ccc(Cl)cc3[nH]c2=O)s1 | inconclusive: 17.8 µM [activator, partial curve] | – | – |
| Cn1c(CNC(=O)c2ccco2)nnc1SCC(=O)c1ccc(Br)cc1 | inconclusive: 35.5 µM [activator, single point] | – | – |
| N#C/C(=C\c1ccc(-c2ccccc2C(=O)O)o1)c1nc2ccccc2[nH]1 | inactive | – | – |
| Cc1cc(NC(=O)C23CCC(C)(C(=O)O2)C3(C)C)no1 (configuration not stated) | inconclusive: 50.1 µM [activator, single point] | – | – |
| COCc1cc(Sc2ccc(Br)cc2)nc(-c2ccccc2)n1 | – | inconclusive: 50.6% [activator] [at 57.5 µM] | – |
| Cc1ccc2nc(COc3ccc(NC(=O)COc4ccccc4F)cc3)cc(=O)n2c1 | – | inconclusive: 54% [activator] | – |
| CSCc1cc(N(C)C)nc(SCc2ccc(Cl)cc2Cl)n1 | inconclusive: 50.1 µM [activator, single point] | – | – |
| COCCCNC(=O)c1ccc2nc(Cc3ccc(OC)cc3)oc2c1 | – | inconclusive: 62.6% [activator] | – |
| O=C(NC(c1ccc(-c2ccccc2)cc1)c1cnccn1)C1CCN(Cc2ccc(Cl)c(Cl)c2)CC1 (configuration not stated) | – | inactive: -9.24% | – |
| Cc1ccccc1Cn1nc(C)c(NC(=O)c2noc3c2CC(C(C)(C)C)CC3)c1C (configuration not stated) | – | inactive: -18.1% [at 57.5 µM] | – |
| CC1(C)CC(=O)C=C(NCc2ccc(C(=O)O)cc2)C1 | – | inconclusive: 57.6% [activator] | – |
| CCOc1ccc(-c2nc[nH]c2[N+](=O)[O-])cc1 | – | inconclusive: 32.4% [activator] | – |
| COc1ccc2c(c1)cc1c(=O)n(CC(=O)NC3CCCCC3)nc(C)n12 | – | – | inactive |
| CCCN1C(=O)c2ccccc2NC1c1ccc(Cl)cc1 (configuration not stated) | – | inactive: -4.23% | – |
| O=C(NC(=S)N1CCOCC1)c1ccc([N+](=O)[O-])cc1 | inconclusive: 100 µM [activator, partial curve, poor fit] | – | – |
| Cc1ccc(N/N=C2\CS(=O)(=O)N(C)c3ccsc32)cc1 | inconclusive: 15.8 µM [activator, partial curve] | – | – |
| COc1cc(OC)c(S(=O)(=O)N2CCOCC2)cc1S(=O)(=O)N1CCOCC1 | inconclusive: 12.6 µM [activator, full curve, poor fit] | – | – |
| O=C(c1ccc(S(=O)(=O)N2CCC(c3nc4ccccc4s3)CC2)cc1)N1CCCCC1 | inconclusive: 2.82 µM [activator, partial curve] | – | – |
| CCCC(=O)N(CC(=O)Nc1sc(C)c(C)c1C(N)=O)Cc1ccccc1 | inconclusive: 44.7 µM [activator, partial curve, poor fit] | – | – |
| O=[N+]([O-])c1ccc(O)c(N=Cc2sc3ccccc3c2O)c1 | – | inactive: -73.2% | – |

Two entries drawn at random from those above:

| SMILES | Potency | activation | outcome |
| --- | --- | --- | --- |
| O=[N+]([O-])c1ccc(O)c(N=Cc2sc3ccccc3c2O)c1 | – | inactive: -73.2% | – |
| CCCN1C(=O)c2ccccc2NC1c1ccc(Cl)cc1 (configuration not stated) | – | inactive: -4.23% | – |

Following part.

| SMILES | Potency | activation | outcome |
| --- | --- | --- | --- |
| CCCC(=O)Nc1ccc(Cl)c(NC(=O)c2cccnc2Cl)c1 | inconclusive: 1.26 µM [activator, full curve, poor fit] | – | – |
| COc1ccc(CCN2CC(C(=O)N(C)Cc3ccccc3OC)CCC2=O)cc1 (configuration not stated) | inconclusive: 39.8 µM [activator, partial curve, poor fit] | – | – |
| COCC(=O)N(Cc1cc2cc(C)ccc2[nH]c1=O)c1ccccc1 | inconclusive: 28.2 µM [activator, partial curve] | – | – |
| CCOc1cc(CNCc2cccs2)cc(Br)c1OCC | – | inactive: 9.39% [at 57.5 µM] | – |
| Cc1cc(C(=O)N/N=C/c2ccc([N+](=O)[O-])cc2)c(C)o1 | – | inactive: -19.9% | – |
| C[C@@H]1CN([C@H](C)CO)S(=O)(=O)c2ccc(C#Cc3ccccc3F)cc2O[C@H]1CN(C)C(=O)c1ccc2c(c1)OCO2 | – | inactive: -24.1% | – |
| Cc1cc(C(=O)O)c2c(=O)n(C)c(=O)n(C)c2n1 | – | – | inactive |
| Cc1ccc(N(C(=O)Cn2nnc(-c3cccs3)n2)C(C(=O)NC2CCCC2)c2ccncc2)cc1 (configuration not stated) | inconclusive: 0.708 µM [activator, full curve, poor fit] | – | – |
| CN(C)S(=O)(=O)n1cc(/C=C(\NC(=O)c2ccccc2)C(=O)NCCN2CCOCC2)c2ccccc21 | inconclusive: 22.4 µM [activator, partial curve, poor fit] | – | – |
| CCN(CC(=O)Nc1cc(C)c(Cl)cc1OC)CC(=O)NC1CCS(=O)(=O)C1 (configuration not stated) | – | inactive: -6.77% | – |
| COc1ccccc1CNC(=O)CC1N=C2c3ccccc3N=C(SCC(=O)Nc3ccc(F)cc3)N2C1=O (configuration not stated) | – | inconclusive: -37.2% [activator] | – |
| COc1cc(NC(=O)c2c(-c3ccc(C)cc3)nnc3ccccc23)cc(OC)c1OC | inconclusive: 2.51 µM [activator, full curve, poor fit] | – | – |
| Cc1oc2c(c1C(=O)Nc1cccc(Br)c1)C1=NCCN1C=N2 | – | inconclusive: 33.5% [activator] | – |
| Cc1ccc(NC(=O)c2cc(C)nn2-c2ccccc2)cc1 | inconclusive: 126 µM [activator, single point] | – | – |
| CC1=C(C)CC(C(=O)Nc2cccc(Cl)c2)C(C(=O)O)C1 (configuration not stated) | inconclusive: 2.51 µM [activator, full curve] | – | – |
| O=C(CN1CCN(S(=O)(=O)c2ccc(C(F)(F)F)cc2)CC1)N1CCNC1=O | inconclusive: 22.4 µM [activator, partial curve, poor fit] | – | – |
| COCCC(=O)N1CCC(Oc2ccc(C(=O)N3CCCCCCC3)cc2)CC1 | – | inconclusive: 48.7% [activator] | – |
| CC(=O)Nc1ccc(S(=O)(=O)N[C@@H](C)C(=O)OCc2cc([N+](=O)[O-])cc3c2OCOC3)cc1 | – | inconclusive: 81.6% [activator] | – |
| Cc1ccc(S(=O)(=O)N(CC(=O)Nc2cccc([N+](=O)[O-])c2)C2CCCCC2)cc1 | – | inactive: -4.42% [at 57.5 µM] | – |
| Cc1ccc(C23CC4CC(CC(CC(=O)N5CCOCC5)(C4)C2)C3)cc1 | inconclusive: 35.5 µM [activator, single point] | – | – |
| O=C(O)c1cc2nc(C3CC3)cc(C(F)(F)F)n2n1 | – | inconclusive: 53.2% [activator] | – |
